Measurements as given in the supplement of paper PMC5355238.
Where a name gives a salt, the structure may show the parent alone. The list shows a part of the results. Most entries show no effect beyond the scatter of the controls.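 Using flow cytometry, the assay measures the median γH2AX antibody signal in S-phase Reh cells (a human leukemia line). Each score is the number of standard deviations from the median difference of paired plate sets. Candidate hits scored above 2.5; compounds scoring below -2 lowered MK1775-induced damage.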

test system: Reh; experiment: Z' of S-phase gammaH2AX difference (drug + MK1775 minus drug alone) (Z-score); higher = stronger synergistic S-phase DNA damage with MK1775; conditions: MK1775 concentration 400 nM; first compound 10 µM; 4 h

Compound | Z' of S-phase gammaH2AX difference (Z-score)
Oc1ccc([C@@H]2CNCc3sccc32)cc1O + C=CCn1c(=O)c2cnc(Nc3ccc(N4CCN(C)CC4)cc3)nc2n1-c1cccc(C(C)(C)O)n1 [MK1775] | inactive: -0.203
Nc1nc2c(nc(Br)n2C2OC3COP(=O)(O)O[C@@H]3C2O)c(=O)[nH]1 (some centres not stated) [8-Bromo-cGMP sodium] + C=CCn1c(=O)c2cnc(Nc3ccc(N4CCN(C)CC4)cc3)nc2n1-c1cccc(C(C)(C)O)n1 [MK1775] | inactive: -0.354
CN(C)c1nc(N(C)C)nc(N(C)C)n1 [Altretamine (Hexalen)] + C=CCn1c(=O)c2cnc(Nc3ccc(N4CCN(C)CC4)cc3)nc2n1-c1cccc(C(C)(C)O)n1 [MK1775] | inactive: -0.301
CN(C)c1nc(N(C)C)nc(N(C)C)n1 [Altretamine] + C=CCn1c(=O)c2cnc(Nc3ccc(N4CCN(C)CC4)cc3)nc2n1-c1cccc(C(C)(C)O)n1 [MK1775] | inactive: 0.15
CC(=O)O[C@]1(C(C)=O)CC[C@H]2[C@@H]3C[C@H](C)C4=CC(=O)CC[C@]4(C)[C@H]3CC[C@@]21C [Medroxyprogesterone acetate] + C=CCn1c(=O)c2cnc(Nc3ccc(N4CCN(C)CC4)cc3)nc2n1-c1cccc(C(C)(C)O)n1 [MK1775] | inactive: 0.104
CCCNCC(O)COc1ccccc1C(=O)CCc1ccccc1 (configuration not stated) [Propafenone hydrochloride] + C=CCn1c(=O)c2cnc(Nc3ccc(N4CCN(C)CC4)cc3)nc2n1-c1cccc(C(C)(C)O)n1 [MK1775] | inactive: 0.00485
CCCCCCCCCCCCCCCCCC(=O)OC(CC(=O)O)C[N+](C)(C)C (racemic) [DL-Stearoylcarnitine chloride] + C=CCn1c(=O)c2cnc(Nc3ccc(N4CCN(C)CC4)cc3)nc2n1-c1cccc(C(C)(C)O)n1 [MK1775] | inactive: -1.62
COc1ccccc1OCC(O)CN1CCN(CC(=O)Nc2c(C)cccc2C)CC1 (configuration not stated) [Ranolazine (Ranexa)] + C=CCn1c(=O)c2cnc(Nc3ccc(N4CCN(C)CC4)cc3)nc2n1-c1cccc(C(C)(C)O)n1 [MK1775] | inactive: 0.134
COc1ccccc1OCC(O)CN1CCN(CC(=O)Nc2c(C)cccc2C)CC1 (configuration not stated) [Ranolazine dihydrochloride] + C=CCn1c(=O)c2cnc(Nc3ccc(N4CCN(C)CC4)cc3)nc2n1-c1cccc(C(C)(C)O)n1 [MK1775] | inactive: 0.228
O=[N+]([O-])c1cccc2cn[nH]c12 [7-Nitroindazole] + C=CCn1c(=O)c2cnc(Nc3ccc(N4CCN(C)CC4)cc3)nc2n1-c1cccc(C(C)(C)O)n1 [MK1775] | inactive: 0.097
CC(C)[C@@H]1NC(=O)[C@H](CCCCN)NC(=O)[C@@H](Cc2c[nH]c3ccccc23)NC(=O)[C@H](Cc2ccc(O)cc2)NC(=O)[C@H](C)N(C)C(=O)[C@H](Cc2ccccc2)NC1=O [Seglitide] + C=CCn1c(=O)c2cnc(Nc3ccc(N4CCN(C)CC4)cc3)nc2n1-c1cccc(C(C)(C)O)n1 [MK1775] | inactive: -0.0802
COc1cc([C@@H]2c3cc4c(cc3[C@@H](O[C@@H]3O[C@@H]5CO[C@@H](C)O[C@H]5[C@H](O)[C@H]3O)[C@H]3COC(=O)[C@H]23)OCO4)cc(OC)c1O [Etoposide] + C=CCn1c(=O)c2cnc(Nc3ccc(N4CCN(C)CC4)cc3)nc2n1-c1cccc(C(C)(C)O)n1 [MK1775] | active: 6.63
CCn1ccnc1CC1COc2ccccc2O1 (configuration not stated) [Imiloxan hydrochloride] + C=CCn1c(=O)c2cnc(Nc3ccc(N4CCN(C)CC4)cc3)nc2n1-c1cccc(C(C)(C)O)n1 [MK1775] | inactive: -1.61
O=C1CC2(CCCC2)CC(=O)N1CCCCN1CCN(c2ncccn2)CC1 [Buspirone hydrochloride] + C=CCn1c(=O)c2cnc(Nc3ccc(N4CCN(C)CC4)cc3)nc2n1-c1cccc(C(C)(C)O)n1 [MK1775] | inactive: 0.14
O=C(NOC[C@H](O)CO)c1ccc(F)c(F)c1Nc1ccc(I)cc1F + C=CCn1c(=O)c2cnc(Nc3ccc(N4CCN(C)CC4)cc3)nc2n1-c1cccc(C(C)(C)O)n1 [MK1775] | inactive: 0.154
Cc1cc(C)c(/C=C2\C(=O)Nc3ccccc32)[nH]1 + C=CCn1c(=O)c2cnc(Nc3ccc(N4CCN(C)CC4)cc3)nc2n1-c1cccc(C(C)(C)O)n1 [MK1775] | inactive: -0.0392
N[C@H](C(=O)O)c1cc(O)cc(O)c1 [(S)-3,5-Dihydroxyphenylglycine] + C=CCn1c(=O)c2cnc(Nc3ccc(N4CCN(C)CC4)cc3)nc2n1-c1cccc(C(C)(C)O)n1 [MK1775] | inactive: -0.425
Cc1cccc(C#Cc2ccccc2)n1 [6-Methyl-2-(phenylethynyl)pyridine hydrochloride] + C=CCn1c(=O)c2cnc(Nc3ccc(N4CCN(C)CC4)cc3)nc2n1-c1cccc(C(C)(C)O)n1 [MK1775] | inactive: 0.369
O=C(Nc1ncc([N+](=O)[O-])s1)c1ccc([N+](=O)[O-])c(Cl)c1 [NF??B Activation Inhibitor III] + C=CCn1c(=O)c2cnc(Nc3ccc(N4CCN(C)CC4)cc3)nc2n1-c1cccc(C(C)(C)O)n1 [MK1775] | inactive: 0.221
C=CCN1CCc2c(cc(O)c(O)c2Br)[C@@H](c2ccccc2)C1 [R(+)-6-Bromo-APB hydrobromide] + C=CCn1c(=O)c2cnc(Nc3ccc(N4CCN(C)CC4)cc3)nc2n1-c1cccc(C(C)(C)O)n1 [MK1775] | inactive: 0.0501
CN1CCN(CCOc2cc(OC3CCOCC3)c3c(Nc4c(Cl)ccc5c4OCO5)ncnc3c2)CC1 [Saracatinib (AZD0530)] + C=CCn1c(=O)c2cnc(Nc3ccc(N4CCN(C)CC4)cc3)nc2n1-c1cccc(C(C)(C)O)n1 [MK1775] | inactive: 0.509
Nc1ccc(S(=O)(=O)Nc2ccnn2-c2ccccc2)cc1 [Sulfaphenazole] + C=CCn1c(=O)c2cnc(Nc3ccc(N4CCN(C)CC4)cc3)nc2n1-c1cccc(C(C)(C)O)n1 [MK1775] | inactive: 0.0615

Single entries from the entries so far:
Z' of S-phase gammaH2AX difference (Z-score) with COc1ccccc1OCC(O)CN1CCN(CC(=O)Nc2c(C)cccc2C)CC1 (configuration not stated) [Ranolazine dihydrochloride] + C=CCn1c(=O)c2cnc(Nc3ccc(N4CCN(C)CC4)cc3)nc2n1-c1cccc(C(C)(C)O)n1 [MK1775] is entered as inactive: 0.228
Z' of S-phase gammaH2AX difference (Z-score) with Nc1ccc(S(=O)(=O)Nc2ccnn2-c2ccccc2)cc1 [Sulfaphenazole] + C=CCn1c(=O)c2cnc(Nc3ccc(N4CCN(C)CC4)cc3)nc2n1-c1cccc(C(C)(C)O)n1 [MK1775] is entered as inactive: 0.0615
